This is one part of the list. These are further read-outs of the screen, such as a control signal, another cell line or another target. No call is given for them. Most of these compounds were active or inconclusive in the main read-out, so they are no random draw. Potencies come from curve fits of mixed quality, noted in brackets.

The assay can be described thus: qHTS Assay for Lipid Storage Modulators in Drosophila S3 Cells.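 On cell number change: cells counted by Cell Tracker Red CMTPX staining in the red channel.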 As to conditions: BODIPY lipid droplet fluorescence, 18-24 h; for cell number change: measured here: cell count max response, cells fed with added oleic acid. The gist of the method: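 Drosophila S3 cells got compounds at several concentrations plus oleic acid (400 uM solution). Laser-scanning cytometry with 488 nm excitation read lipid droplets at 500-530 nm and cells at 575-640 nm. Percent activity was relative to 20 uM Triacsin C.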
A general note: qHTS replaces the single test concentration by a dilution series.

Setting [1] is: measured here: cell number channel AC50, cells fed with added oleic acid.
Setting [2] is: measured here: lipid fluorescence (Fed channel) AC50, cells fed with added oleic acid.

Consider `CC(=O)c1ccc(N2CCN(C(=O)c3ccc(OCc4c(C)noc4C)cc3)CC2)cc1`, for which the cell number change was -21.2%.
For the molecule `OC(Cn1cncn1)c1ccc(Cl)cc1` (stereo unspecified), the cell number change amounted to 8.65%.
A word on the AC50: it is the midpoint of the concentration-response curve, whichever way the signal moves. Low readings indicate activity at low concentration, high ones activity only at high concentration. Turning to `COC(=O)c1c(C)oc2ccc(NS(=O)(=O)c3cccs3)cc12`, under setting [1], the half-maximal activity concentration (AC50) is 2.31 µM [rising, partial curve].
For the molecule `Cc1ccc(OCC(=O)Oc2c(C)cccc2C)cc1`, the cell number change is 24.9%. Moreover, the AC50 under setting [2] is 29.1 µM [rising, single point].
As for `Cc1cccn2c(=O)c3cc(C#N)c(=N)n(CCN4CCOCC4)c3nc12`, the cell number change is -2.56%. Moreover, under setting [2], the concentration at half-maximal activity (AC50) is 0.517 µM [rising, full curve].
For `CC(OC(=O)CNS(=O)(=O)c1ccc2ccccc2c1)C(=O)N(C)c1ccccc1` (stereo unspecified), the cell number change was -15.3%.
With `O=C(CCNC(=O)c1ccc([N+](=O)[O-])cc1)NC1CCCCCC1`, the cell number change is -2.94%. In addition, the half-maximal activity concentration (AC50) under setting [1] is 0.092 µM [falling, full curve, poor fit]. In addition, the half-maximal activity concentration (AC50) under setting [2] is 0.092 µM [falling, full curve, poor fit].
Take `CC(C)c1ccc(/C=C/c2[nH]c(=O)[nH]c(=O)c2[N+](=O)[O-])cc1`: the cell number change came out at 15.5%. Further, the AC50 under setting [2] is 1.84 µM [falling, partial curve].
In the case of `CNC(=O)c1ccsc1NC(=O)CCS(=O)(=O)c1ccc(F)cc1`, the cell number change was found to be 26.6%. Further, under setting [1], the AC50 is 0.0259 µM [rising, full curve, poor fit]. Besides, under setting [2], the AC50 was 3.66 µM [rising, partial curve, poor fit].
Take `O=C(Nc1ccc(-c2cc3ccccc3oc2=O)c(Cl)c1)c1cccnc1`: the cell number change is -35.4%. Under setting [1], the half-maximal activity concentration (AC50) is 23.1 µM [falling, single point].
As for `CC(C)(C)NC(=O)N1CCN(c2nc3ccc(Cl)cc3s2)CC1`, the cell number change was -48.7%. Under setting [1], the concentration at half-maximal activity (AC50) is 20.6 µM [falling, single point]. The AC50 under setting [2] was 23.1 µM [falling, single point].
`COc1ccc(-n2c(C)nc3c(cnn3-c3ccc(C)c(C)c3)c2=O)cc1`: the cell number change is 13.9%. In addition, the AC50 under setting [1] is 0.00411 µM [rising, full curve, poor fit].
With `CC(=O)Oc1c(C)c(=O)n(C)c2ccccc12`, the cell number change was determined as 2.2%. For the same molecule, under setting [2], the AC50 is 0.116 µM [falling, full curve, poor fit].
`Cc1ccc2nc(NC3=NCN(C4CCCCC4)CN3)nc(C)c2c1`: the cell number change is -9.05%. The AC50 under setting [2] is 3.66 µM [falling, partial curve].
In the case of `COc1cc(NC(=O)c2cc(OC)c(OC)c(OC)c2)c(OC)cc1NC(=O)CN1CCCCC1`, the AC50 under setting [2] is 0.116 µM [rising, full curve, poor fit].
Consider `CNCc1ccccc1Sc1ccc(OC)cc1`, for which the cell number change was -15.4%. The AC50 under setting [2] is 1.84 µM [falling, partial curve, poor fit].
Take `Cc1nn2c(COc3ccc(NC(=O)c4ccccc4Cl)cc3)nnc2c2ccccc12`: the cell number change was 2.09%. For the same molecule, the AC50 under setting [2] was 10.3 µM [rising, partial curve, poor fit].
For `CCOc1ccccc1NC(=O)C1CCCN1S(=O)(=O)c1ccccc1C(F)(F)F` (stereo unspecified), the cell number change is -25.7%. The AC50 under setting [1] was 1.64 µM [rising, partial curve]. Further, the half-maximal activity concentration (AC50) under setting [2] is 2.06 µM [rising, partial curve].
Regarding `CCN(CC)S(=O)(=O)c1cccc(C(=O)Nc2cc(C)cc(C)c2)c1`, the cell number change is -1.61%. Also, the AC50 under setting [1] is 6.51 µM [falling, single point]. The concentration at half-maximal activity (AC50) under setting [2] was 29.1 µM [falling, single point].
For the molecule `Cc1ccc(C(=O)OCC(=O)N2CC(C)CC(C)C2)cc1S(=O)(=O)N1CCCCC1` (stereo unspecified), the cell number change was -18%.
As for `COc1cccc(N2CCN(S(=O)(=O)c3ccc4c(c3)NC(=O)C(C)C(=O)N4)CC2)c1` (stereo unspecified), the cell number change is -13.9%.
Take `Cc1cc(C)cc(Oc2ncnc3c2ncn3Cc2c(Cl)cccc2Cl)c1`: the cell number change is -30.1%. Under setting [1], the AC50 was 29.1 µM [falling, single point].
`CCCCC(c1nnnn1C1CCCC1)N1CCN(C(=O)c2ccco2)CC1` (stereo unspecified): the cell number change was -10.9%. Further, under setting [2], the half-maximal activity concentration (AC50) was 0.13 µM [rising, full curve, poor fit].
With `CC1CCN(C(=O)c2nc[nH]c2C(=O)N2CCc3ccccc3C2)CC1`, the cell number change came out at 16.5%. Also, under setting [1], the AC50 is 0.366 µM [rising, partial curve, poor fit].
As for `CCOC(=O)C(NC(=O)OC(C)C)(Nc1nccs1)C(F)(F)F` (stereo unspecified), the cell number change was -165%. The AC50 under setting [1] is 29.1 µM [falling, partial curve].
For the molecule `O=C(c1oc2ccccc2c1CSCc1ccccc1)N1CCN(c2ncccn2)CC1`, the cell number change is -15.9%. The AC50 under setting [2] was 10.3 µM [falling, partial curve].
Turning to `Nc1nonc1-n1nnc(C(=O)N/N=C/c2cc(Br)ccc2O)c1CSC1=NCCS1`, the cell number change was -9.28%. Besides, the concentration at half-maximal activity (AC50) under setting [2] was 18.4 µM [falling, single point].
For the molecule `CC(=O)c1ccc(NC(=O)CCSCCC(=O)Nc2ccc(C(C)=O)cc2)cc1`, the cell number change came to 1.76%.
Regarding `O=c1ccc2ccc(OCCOc3cccc(Cl)c3)cc2o1`, the cell number change came to 36.4%. Moreover, under setting [1], the half-maximal activity concentration (AC50) is 20.6 µM [rising, partial curve, poor fit]. The AC50 under setting [2] is 1.84 µM [rising, full curve].
Turning to `CCN1C(=O)[C@@H]2[C@@H](c3ccc(SC4CCCCC4)cc3)N3CCC[C@@]3(C(=O)OC)[C@@H]2C1=O`, the cell number change was -12.9%. Further, the AC50 under setting [2] is 0.82 µM [rising, full curve, poor fit].
With `O=C(Cn1cnc2cc([N+](=O)[O-])ccc2c1=O)Nc1cccc2ccccc12`, the cell number change was determined as 11.3%. Moreover, the AC50 under setting [2] was 0.206 µM [rising, full curve].
For `COc1ccccc1-c1ccc(SCc2ccc([N+](=O)[O-])cc2)nn1`, the cell number change is 29%. Further, the AC50 under setting [1] is 0.116 µM [rising, partial curve, poor fit]. The concentration at half-maximal activity (AC50) under setting [2] is 9.2 µM [rising, partial curve].
For `O=C(NCCO)c1cccc2c1-c1ccccc1C2=O`, the cell number change is 31.1%. The half-maximal activity concentration (AC50) under setting [1] was 32.6 µM [rising, single point]. In addition, the AC50 under setting [2] is 0.0184 µM [falling, full curve, poor fit].
With `COc1ccc(C(=O)NCC(=O)N2CCC(C)CC2)cc1OC`, the cell number change was -1.78%. Further, the AC50 under setting [1] is 0.116 µM [falling, full curve, poor fit].
Regarding `S=C(Nc1cccnc1)Nc1cccc2cnccc12`, the cell number change is 43.8%. The concentration at half-maximal activity (AC50) under setting [1] is 2.91 µM [rising, full curve, poor fit]. Further, the AC50 under setting [2] is 18.4 µM [rising, single point].
Consider `Cc1nc(NC(=S)NC(=O)c2cccs2)ccc1Br`, for which the cell number change was -31.7%. For the same molecule, the half-maximal activity concentration (AC50) under setting [1] was 14.6 µM [falling, single point]. Moreover, the concentration at half-maximal activity (AC50) under setting [2] is 2.06 µM [rising, partial curve].
As to `CCCCOc1ccc(-c2nnc(N)s2)cc1`, the cell number change is 3.39%.
On to `COc1ccc(-c2cc3nc[nH]c(=O)c3s2)cc1`, for which the cell number change came to 46.1%. Besides, under setting [1], the concentration at half-maximal activity (AC50) is 5.8 µM [rising, single point].
Take `CCCCCC1CC(CC/C(C)=N/NC(N)=O)C(=O)O1` (stereo unspecified): the cell number change is -17.7%. Besides, under setting [2], the AC50 is 16.4 µM [falling, single point].
Regarding `CCOc1ccc(/C=N/NC(=O)c2c(-c3ccccc3)noc2C)cc1`, the cell number change is 9.89%. For the same molecule, under setting [2], the AC50 is 0.116 µM [falling, partial curve, poor fit].
On to `N#C/C(=C\c1ccc(Cl)s1)C(=O)N1CCN(c2ccccc2)CC1`, for which the cell number change was -16.7%. Besides, the AC50 under setting [2] was 2.59 µM [falling, partial curve].
In the case of `O=C(CN1C(=O)c2ccccc2S1(=O)=O)NCCSCc1c(F)cccc1Cl`, the cell number change was 11.2%.
In the case of `O=C(O)c1ccccc1NCc1cccs1`, the cell number change stood at 7.92%. In addition, the AC50 under setting [2] is 3.26 µM [rising, full curve].
Regarding `CN(C)CCN(C)Cc1ccc2c(c1)Cc1ccccc1-2`, the cell number change was -32.8%. The AC50 under setting [1] is 0.731 µM [falling, partial curve, poor fit].
Regarding `COc1ccccc1CN1CC(C(=O)N(C)Cc2ccc(C)o2)CCC1=O` (stereo unspecified), the AC50 under setting [2] was 0.411 µM [falling, partial curve].
As for `CCc1cccc(NC(=O)Cn2c(-c3ccccc3)cc(C(C)=O)c2C)c1`, the cell number change stood at 12.9%. Moreover, the AC50 under setting [2] was 11.6 µM [rising, partial curve].
As to `COc1cc(/C=C/c2noc(-c3ccccc3O)n2)cc(OC)c1OC`, the cell number change was -10.1%. The AC50 under setting [2] is 4.11 µM [rising, single point].
Consider `CCOC(=O)c1oc2cccc(O)c2c1CN(Cc1ccccc1)C(C)=O`, for which the cell number change was 8.4%. The half-maximal activity concentration (AC50) under setting [2] is 4.11 µM [falling, full curve].
For the molecule `Cc1ccc(NC(=O)CCc2nnc3ccc(N4CCC5(CC4)OCCO5)nn23)cc1F`, the cell number change is -23.2%. In addition, the AC50 under setting [2] was 0.231 µM [falling, full curve].
For the molecule `CCn1c(=O)c2c(nc(SCC(=O)N3CCC(C)CC3)n2C)n(C)c1=O`, the cell number change was 0.435%. Besides, the half-maximal activity concentration (AC50) under setting [2] was 29.1 µM [falling, single point].
In the case of `COc1ccc(CCNC(=O)c2ccc(N3CCCCS3(=O)=O)cc2)cc1OC`, the AC50 runs as follows: under setting [1], 4.11 µM [rising, single point]; under setting [2], 29.1 µM [rising, single point].
Turning to `CCCCCN(C(=O)CCC(=O)OCC(=O)N(C)Cc1ccccc1C)c1c(N)n(CCCC)c(=O)[nH]c1=O`, the cell number change came to 10%.
For `Cc1nc2cc(-c3ccc(F)cc3)[nH]n2c(=O)c1C`, the cell number change was -5.25%. Further, under setting [2], the AC50 was 0.231 µM [rising, full curve, poor fit].
On to `COCCN(C(=O)CSCC(=O)Nc1ccc(C)cc1)c1c(N)n(CC(C)C)c(=O)[nH]c1=O`, for which the cell number change is -8.03%. Also, the AC50 under setting [2] was 0.00461 µM [rising, full curve, poor fit].
Regarding `COC(=O)c1ccc([C@H]2C=C(C(=O)O)O[C@@H](OCc3ccc(CO)cc3)C2)cc1`, the cell number change was 12.3%. In addition, the AC50 under setting [2] was 8.2 µM [rising, partial curve].
Consider `O=C(NCCCn1ccnc1)c1cn(-c2ccccc2)nc1-c1ccccc1`, for which the cell number change is -6.37%. In addition, the concentration at half-maximal activity (AC50) under setting [1] was 0.116 µM [falling, full curve, poor fit]. Further, the AC50 under setting [2] was 18.4 µM [rising, partial curve].
For `CC(C)CC(C(=O)Nc1ccc2c(c1)OCCO2)N1C(=O)c2ccccc2C1=O` (stereo unspecified), the cell number change is -17.7%.
With `O=C(NCCO)c1nc(C(=O)c2ccc(Cl)cc2)c2ccccc2n1`, the cell number change was -12.6%.
In the case of `Cc1cnc(C(=O)OCC(=O)NCc2ccccc2)cn1`, the cell number change was -80.7%. For the same molecule, the AC50 under setting [1] was 14.6 µM [falling, partial curve, poor fit]. The half-maximal activity concentration (AC50) under setting [2] is 14.6 µM [falling, partial curve].

Values taken from PubChem BioAssay AID2685 (National Center for Advancing Translational Sciences (NCATS), 2010).
